Assay [1] addresses stromal interaction molecule 1 (STIM1) (human (endogenous in primary umbilical vein ECs)) (UniProt Q13586). Kind of assay: co-IP; endogenous STIM1 immunoprecipitated (rabbit antibody) from lysates of wild-type ECs; 25 mM Tris-HCl pH 7.2, 150 mM NaCl, 1% NP-40, 4°C; Western blot.
For assay [2], the target named is MT plus end-binding protein 1 (EB1) (human (endogenous in primary umbilical vein ECs)) (UniProt Q15691). The assay can be described thus: co-IP; endogenous EB1 immunoprecipitated (mouse anti-EB1) from lysates of shCTL or shSTIM1 ECs; 1 mg lysate, 25 mM Tris-HCl pH 7.2, 150 mM NaCl, 1% NP-40, 4°C; Western blot.
Assay [3] addresses HOOK1 (human (endogenous in primary umbilical vein ECs)) (UniProt Q9UJC3). The assay can be described thus: co-IP; endogenous HOOK1 immunoprecipitated (rabbit antibody) from lysates of wild-type ECs, untreated or treated with AZ82; 25 mM Tris-HCl pH 7.2, 150 mM NaCl, 1% NP-40, 4°C; Western blot. On the technique in general: In western blotting, separated proteins are transferred to a membrane and probed.

The chains behind the UniProt entries cited, without tags or fusion partners. Residues count along the entry.
UniProt Q13586, residues 23-685: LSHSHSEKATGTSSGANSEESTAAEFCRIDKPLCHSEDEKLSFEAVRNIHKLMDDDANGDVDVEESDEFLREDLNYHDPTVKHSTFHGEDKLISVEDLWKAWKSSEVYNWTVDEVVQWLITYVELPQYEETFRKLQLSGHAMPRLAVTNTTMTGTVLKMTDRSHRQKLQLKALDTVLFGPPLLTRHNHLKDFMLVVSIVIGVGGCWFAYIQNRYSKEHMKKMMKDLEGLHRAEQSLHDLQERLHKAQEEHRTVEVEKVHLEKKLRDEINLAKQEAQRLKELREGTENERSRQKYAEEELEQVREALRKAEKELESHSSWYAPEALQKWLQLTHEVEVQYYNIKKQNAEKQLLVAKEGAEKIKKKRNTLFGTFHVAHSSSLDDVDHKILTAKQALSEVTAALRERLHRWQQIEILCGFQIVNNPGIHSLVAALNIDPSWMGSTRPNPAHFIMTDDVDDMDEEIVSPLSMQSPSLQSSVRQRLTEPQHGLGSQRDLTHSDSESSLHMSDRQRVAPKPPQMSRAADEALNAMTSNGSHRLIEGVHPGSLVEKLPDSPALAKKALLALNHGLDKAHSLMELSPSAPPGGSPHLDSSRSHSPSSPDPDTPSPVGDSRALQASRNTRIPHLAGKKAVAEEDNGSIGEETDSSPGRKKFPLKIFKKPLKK
UniProt Q15691: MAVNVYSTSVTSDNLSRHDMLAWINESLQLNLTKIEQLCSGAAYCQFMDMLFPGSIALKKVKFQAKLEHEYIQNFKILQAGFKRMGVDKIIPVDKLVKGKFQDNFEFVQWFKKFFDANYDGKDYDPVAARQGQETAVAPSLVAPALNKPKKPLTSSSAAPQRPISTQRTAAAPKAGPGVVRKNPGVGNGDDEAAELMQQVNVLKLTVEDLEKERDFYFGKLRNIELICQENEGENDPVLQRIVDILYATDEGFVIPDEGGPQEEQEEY
UniProt Q9UJC3: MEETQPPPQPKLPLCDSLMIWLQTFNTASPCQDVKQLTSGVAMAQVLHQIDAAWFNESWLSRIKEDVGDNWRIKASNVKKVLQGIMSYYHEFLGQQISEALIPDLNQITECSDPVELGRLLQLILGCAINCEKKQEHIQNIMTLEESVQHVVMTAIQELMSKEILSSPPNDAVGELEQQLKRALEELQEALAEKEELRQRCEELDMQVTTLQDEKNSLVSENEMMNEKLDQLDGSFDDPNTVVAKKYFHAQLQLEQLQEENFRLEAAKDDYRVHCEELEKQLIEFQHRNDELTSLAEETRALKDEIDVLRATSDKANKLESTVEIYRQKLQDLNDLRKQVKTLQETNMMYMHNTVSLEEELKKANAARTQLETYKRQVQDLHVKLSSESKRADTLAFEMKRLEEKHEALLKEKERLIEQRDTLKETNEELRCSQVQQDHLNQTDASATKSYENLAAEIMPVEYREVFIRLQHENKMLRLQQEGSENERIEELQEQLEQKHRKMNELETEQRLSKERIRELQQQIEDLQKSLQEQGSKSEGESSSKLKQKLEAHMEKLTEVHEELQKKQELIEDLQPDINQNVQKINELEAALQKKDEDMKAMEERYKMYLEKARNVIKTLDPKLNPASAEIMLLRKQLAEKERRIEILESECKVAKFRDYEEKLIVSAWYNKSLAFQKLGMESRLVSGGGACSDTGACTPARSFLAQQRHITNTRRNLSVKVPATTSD

In assay [4] the target is T1, kinesin-14 KIFC1 (human (endogenous in primary umbilical vein ECs)) (UniProt Q9BW19).
T1 sequence: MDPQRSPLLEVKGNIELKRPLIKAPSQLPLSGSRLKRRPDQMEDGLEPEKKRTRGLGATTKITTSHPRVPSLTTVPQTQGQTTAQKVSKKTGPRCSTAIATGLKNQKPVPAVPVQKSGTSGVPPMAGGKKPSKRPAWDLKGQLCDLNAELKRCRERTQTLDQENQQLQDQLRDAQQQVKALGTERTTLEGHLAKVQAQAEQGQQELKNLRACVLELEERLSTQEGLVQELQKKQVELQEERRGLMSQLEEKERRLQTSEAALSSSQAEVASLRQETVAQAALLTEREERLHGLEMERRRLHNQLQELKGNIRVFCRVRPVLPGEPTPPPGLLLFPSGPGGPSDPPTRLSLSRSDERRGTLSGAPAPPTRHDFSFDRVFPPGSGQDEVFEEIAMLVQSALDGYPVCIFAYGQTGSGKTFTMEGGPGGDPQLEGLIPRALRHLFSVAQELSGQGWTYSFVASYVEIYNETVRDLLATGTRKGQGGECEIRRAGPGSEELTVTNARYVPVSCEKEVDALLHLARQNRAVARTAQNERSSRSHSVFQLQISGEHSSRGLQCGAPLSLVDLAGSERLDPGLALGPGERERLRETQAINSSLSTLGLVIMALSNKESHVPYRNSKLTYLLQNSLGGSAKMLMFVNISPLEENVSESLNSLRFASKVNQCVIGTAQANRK
The assay can be described thus: co-IP; endogenous KIFC1 immunoprecipitated (mouse antibody) from lysates of wild-type ECs; 25 mM Tris-HCl pH 7.2, 150 mM NaCl, 1% NP-40, 4°C; Western blot.

No constants are given. Whether binding was seen depends on the method and setting. In cells and extracts the contact can be indirect. Some entries that bind do so weakly or less than the wild type.

In publication PMC7737607 one finds binding data, which are given here for 2 molecules.

B1: kinesin-14 KIFC1 (protein, UniProt Q9BW19 1-673)
chain: MDPQRSPLLEVKGNIELKRPLIKAPSQLPLSGSRLKRRPDQMEDGLEPEKKRTRGLGATTKITTSHPRVPSLTTVPQTQGQTTAQKVSKKTGPRCSTAIATGLKNQKPVPAVPVQKSGTSGVPPMAGGKKPSKRPAWDLKGQLCDLNAELKRCRERTQTLDQENQQLQDQLRDAQQQVKALGTERTTLEGHLAKVQAQAEQGQQELKNLRACVLELEERLSTQEGLVQELQKKQVELQEERRGLMSQLEEKERRLQTSEAALSSSQAEVASLRQETVAQAALLTEREERLHGLEMERRRLHNQLQELKGNIRVFCRVRPVLPGEPTPPPGLLLFPSGPGGPSDPPTRLSLSRSDERRGTLSGAPAPPTRHDFSFDRVFPPGSGQDEVFEEIAMLVQSALDGYPVCIFAYGQTGSGKTFTMEGGPGGDPQLEGLIPRALRHLFSVAQELSGQGWTYSFVASYVEIYNETVRDLLATGTRKGQGGECEIRRAGPGSEELTVTNARYVPVSCEKEVDALLHLARQNRAVARTAQNERSSRSHSVFQLQISGEHSSRGLQCGAPLSLVDLAGSERLDPGLALGPGERERLRETQAINSSLSTLGLVIMALSNKESHVPYRNSKLTYLLQNSLGGSAKMLMFVNISPLEENVSESLNSLRFASKVNQCVIGTAQANRK
On to B1, for which the binding result in assay [1] is on record as “no binding”; in assay [2], “binds”; in assay [3] it was “no binding”.

B2: HOOK3 (protein, UniProt Q86VS8 1-718)
chain: MFSVESLERAELCESLLTWIQTFNVDAPCQTVEDLTNGVVMAQVLQKIDPAYFDENWLNRIKTEVGDNWRLKISNLKKILKGILDYNHEILGQQINDFTLPDVNLIGEHSDAAELGRMLQLILGCAVNCEQKQEYIQAIMMMEESVQHVVMTAIQELMSKESPVSAGNDAYVDLDRQLKKTTEELNEALSAKEEIAQRCHELDMQVAALQEEKSSLLAENQVLMERLNQSDSIEDPNSPAGRRHLQLQTQLEQLQEETFRLEAAKDDYRIRCEELEKEISELRQQNDELTTLADEAQSLKDEIDVLRHSSDKVSKLEGQVESYKKKLEDLGDLRRQVKLLEEKNTMYMQNTVSLEEELRKANAARSQLETYKRQVVELQNRLSEESKKADKLDFEYKRLKEKVDSLQKEKDRLRTERDSLKETIEELRCVQAQEGQLTTQGLMPLGSQESSDSLAAEIVTPEIREKLIRLQHENKMLKLNQEGSDNEKIALLQSLLDDANLRKNELETENRLVNQRLLEVQSQVEELQKSLQDQGSKAEDSVLLKKKLEEHLEKLHEANNELQKKRAIIEDLEPRFNNSSLKIEELQEALRKKEEEMKQMEERYKKYLEKAKSVIRTLDPKQNQGAAPEIQALKNQLQERDRLFHSLEKEYEKTKSQREMEEKYIVSAWYNMGMTLHKKAAEDRLASTGSGQSFLARQRQATSSRRSYPGHVQPATAR
Regarding B2, in assay [4], the binding result is given as “binds”.
